Experimental data as given in the supplement of paper PMC9135407.
Several values for one entry are separate records, joined by “and”; a condition that tells them apart may be missing. Equal entries are not always repeated. Structures can show the parent of a compound that is named as a salt. ± gives the standard deviation of the averaged measurements. This is one part of the list. Part of the spread comes from offsets between plates or batches.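 Assay uses culture-activated primary human stellate myofibroblasts; lipid droplet recovery indicates inactivation. Measured: proportion of Hoechst-counted cells over a plate-specific Bodipy cutoff, duplicate wells, DMSO and nortriptyline as per-plate negative and positive controls. A hit scores, control-normalized, above the plate's top-tenth-percentile nortriptyline wells or ranks among its three best wells. Final well concentrations not reported.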

Test system: primary human hepatic stellate cells (donor 1)
Test: percent Bodipy-positive cells; higher = more lipid droplet accumulation
Details: 48 h
[1] = library stock concentration: 3.33 mM
[2] = library stock concentration: 1 mM
[3] = library stock concentration: 10 mM

SMILES: CCCCCCCCCCCC1=C(O)C(=O)C=C(O)C1=O [Embelin]
- percent Bodipy-positive cells [1]: 12.7 ± 3.2%

SMILES: CCCCC[C@H](O)/C=C/[C@@H]1[C@@H](C/C=C/CCCC(=O)O)[C@@H](O)C[C@H]1O [5-trans Prostaglandin F2.alpha. (tromethamine salt)]
- percent Bodipy-positive cells [2]: 15.2 ± 3.9%

SMILES: CCCCC[C@H](O)/C=C/[C@@H]1[C@@H](C/C=C/CCCC(=O)O)[C@@H](O)C[C@H]1O [5-trans Prostaglandin F2.alpha.]
- percent Bodipy-positive cells [2]: 7.5 ± 0.97%

SMILES: COc1c2ccoc2cc2oc(=O)ccc12 [Bergapten]
- percent Bodipy-positive cells [1]: 13.1 ± 4.4%
- percent Bodipy-positive cells [3]: 29.5% and 38.3%

SMILES: CCCCCCCC/C=C\CCCCCCCC(=O)OC[C@H](CO)OC(=O)CCCCCCC/C=C\CCCCCCCC [1,2-Dioleoyl-sn-glycerol]
- percent Bodipy-positive cells [2]: 11.4 ± 9%

SMILES: O=C1CCc2ccc(OCCCCN3CCN(c4cccc(Cl)c4Cl)CC3)cc2N1 [Aripiprazole]
- percent Bodipy-positive cells [1]: 42.7 ± 13%
- percent Bodipy-positive cells (library stock concentration: 4.5 mM): 29% and 51.3%
- percent Bodipy-positive cells [3]: 79.3 ± 2.2%

SMILES: CCCCCCCCCCCCCCCC(=O)C(F)(F)F
- percent Bodipy-positive cells [3]: 4.87 ± 1.2%

SMILES: CCCCCCCCCCCCCCCC(=O)C(F)(F)F [Palmityl Trifluoromethyl Ketone]
- percent Bodipy-positive cells [2]: 8.04 ± 2.4%

SMILES: CN(C)CCOC(c1ccc(Cl)cc1)c1ccccn1 (centres undefined) [Carbinoxamine maleate]
- percent Bodipy-positive cells (library stock concentration: 4.9 mM): 19.2 ± 6.4%
- percent Bodipy-positive cells [3]: 28.5 ± 11%

SMILES: CN(C)CCOC(c1ccc(Cl)cc1)c1ccccn1 (centres undefined) [Carbinoxamine Maleate]
- percent Bodipy-positive cells [3]: 72.5 ± 5.3%

SMILES: CN(C)CCOC(c1ccc(Cl)cc1)c1ccccn1 (centres undefined) [Carbinoxamine maleate salt]
- percent Bodipy-positive cells: 23.7 ± 6%

SMILES: Cc1cc(NC(=O)c2cccc(NC(=O)C=CCN(C)C)c2)ccc1Nc1nccc(-c2cccnc2)n1
- percent Bodipy-positive cells [1]: 78.5 ± 5.1%
- percent Bodipy-positive cells [3]: 100%

SMILES: Nc1nc2c(ccc3ccccc32)s1
- percent Bodipy-positive cells [3]: 5.98 ± 2.6%

SMILES: Clc1ccc2c(c1)C(N1CCNCC1)=Nc1ccccc1O2 [Amoxapine]
- percent Bodipy-positive cells (library stock concentration: 6.4 mM): 66.5 ± 7.3%

SMILES: CCCCCCCCCCCCCC(=O)O [Myristic Acid]
- percent Bodipy-positive cells [2]: 13.6 ± 0.67%

SMILES: NC(=O)NC1NC(=O)NC1=O (centres undefined) [Allantoin]
- percent Bodipy-positive cells: 59.9 ± 21%
- percent Bodipy-positive cells [3]: 26.2 ± 10%
- percent Bodipy-positive cells (library stock concentration: 12.6 mM): 12.7 ± 2.2%

SMILES: COc1ccc(NC(=O)c2ccc(-c3ccc(-c4noc(C)n4)cc3C)cc2)cc1N1CCN(C)CC1
- percent Bodipy-positive cells [3]: 99.5% and 90.5%

SMILES: O=C(Nc1ccc(-c2ccnc(Nc3ccc(N4CCOCC4)cc3)n2)cc1)[C@@H]1CCCN1
- percent Bodipy-positive cells [3]: 71.7 ± 4.6%

SMILES: Cc1cnc(Nc2ccc(F)cc2Cl)nc1-c1c[nH]c(C(=O)N[C@H](CO)c2cccc(Cl)c2)c1
- percent Bodipy-positive cells (library stock concentration: 80 uM): 11.516 ± 0.011%
- percent Bodipy-positive cells (library stock concentration: 400 uM): 16.8 ± 12%
- percent Bodipy-positive cells (library stock concentration: 2 mM): 9.48 ± 4.2%
- percent Bodipy-positive cells [3]: 23.7 ± 12%

SMILES: CN(C)[C@@H]1C(O)=C(C(=O)NCNCCCC[C@H](N)C(=O)O)C(=O)[C@@]2(O)C(O)=C3C(=O)c4c(O)cccc4[C@@](C)(O)[C@H]3C[C@@H]12 [Lymecycline]
- percent Bodipy-positive cells: 5.2 ± 3.2%

SMILES: CCCCNc1ccc(C(=O)OCCN(C)C)cc1 [Tetracaine HCl]
- percent Bodipy-positive cells [1]: 15.8 ± 2%
- percent Bodipy-positive cells [3]: 67.5 ± 21%

SMILES: CCCCNc1ccc(C(=O)OCCN(C)C)cc1 [Tetracaine hydrochloride]
- percent Bodipy-positive cells (library stock concentration: 6.6 mM): 54.3 ± 9.9%
- percent Bodipy-positive cells [3]: 65.7% and 51.6%
